PubChem BioAssay AID743121 – NCATS | 2013

Screen: 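Genes whose silencing strengthens cell killing by camptothecin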 (primary screen)
System: MDA-MB-231 cells, a human breast cancer line
Reagents: single siRNA against human genes, 20 nM siRNA (0.8 pmol per well)
Duration: 120 h (drug added 48 h after transfection, read 72 h later)
Challenge: camptothecin 20 nM (about EC30) for 72 h; vehicle 0.1% DMSO in parallel plates
Read-out: 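Cell viability by ATP luminescence (CellTiter-Glo) as % of non-targeting siRNA wells, and the log2 ratio of viability without drug over viability with camptothecin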
Direction: log2 vehicle/camptothecin viability: higher = stronger sensitisation to camptothecin
Hit rule: 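Each gene scored by redundant siRNA activity (RSA) over its individual siRNA ratios; a gene is called active at p < 0.001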
This is an unselected part of about 26,000 reagents. Of all reagents, 167 (0.63%) are marked active. 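Calls are per gene from RSA p-values that are not deposited; an individual active-marked siRNA can sensitise only weakly.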 Reagents against one gene are numbered here. Further read-outs or replicates are left out here. Reagent sequences are not shown.

log2 vehicle/camptothecin viability, by target gene and reagent
APOA2: #1 0.491 inactive; #2 -0.541 inactive; #3 -0.7 inactive; #4 -0.688 inactive
RAX: #1 -0.497 inactive; #2 -0.0941 inactive; #3 0.000173 inactive; #4 -0.688 inactive
IFNW1: #1 -0.432 inactive; #2 0.442 inactive; #3 -0.0403 inactive

2 entries from above, sorted by “log2 vehicle/camptothecin viability”, ascending.
target gene	reagent	log2 vehicle/camptothecin viability	call
APOA2	4	-0.688	inactive
RAX	1	-0.497	inactive

Further results follow:
log2 vehicle/camptothecin viability, by target gene and reagent
LONP1: #1 -0.319 inactive; #2 -0.481 inactive; #3 -0.0895 inactive
SLCO1B1: #1 0.14 inactive; #2 0.0545 inactive; #3 -0.371 inactive; #4 -0.195 inactive
TESK2: #1 -0.6 inactive; #2 -0.0439 inactive; #3 -0.415 inactive; #4 -0.402 inactive
SH3GL1: #1 0.0321 inactive; #2 -0.211 inactive; #3 -0.222 inactive; #4 -0.341 inactive
FGR: #1 -0.637 inactive; #2 0.316 inactive; #3 -0.189 inactive; #4 -0.601 inactive
